Experimental data taken from patent publication US8163870B2, “Channel forming peptides” (Kansas State University Research Foundation, priority 2000, dated 2012).
A unit is not stated for every read-out.

Experiment: Tryptophan fluorescence and KI quenching in buffer and liposomes
Type: physicochemical

With “KKKKAARVGL GITTVWVTTI GLGVRAA (KKKKAARVGLGITTVWVTTIGLGVRAA; Modified Homo sapiens) [SEQ ID No. 9]” the tryptophan fluorescence intensity (1 mM liposomes) was “approximately 249.0”, the “tryptophan fluorescence lambda max” value (1 mM liposomes) was 327.8 nm and the tryptophan fluorescence intensity (buffer) was 148.0 arbitrary units. The tryptophan fluorescence intensity (buffer, 50 mM KI) was 26.7 arbitrary units, the “tryptophan fluorescence lambda max” value (buffer, 50 mM KI) was 357.0 nm and the “tryptophan fluorescence lambda max” value (buffer, peptide 6.25 micromolar) was 348.4 nm. For the same sequence, the tryptophan fluorescence intensity (liposomes, KI) was 193.0 and the “tryptophan fluorescence lambda max” value (liposomes, KI) was 327.4 nm.
